{
  "source": "patent US10786577B2",
  "about": "“Pharmaceutical composition comprising glutatione disulfide and glutathione disulfide S-oxide” (OBSCHESTVO S OGRANICHENNOY OTVETSTVENNOSTJU “IVA FARM”, priority 2017, dated 2020)",
  "tested_on": "vesicular stomatitis virus (VSV)",
  "type": "cell-based, human",
  "conditions": "at different dilutions",
  "note": "Some results were stated once for a whole list of compounds, not compound by compound.",
  "data": [
    {"compound": "NC(CCC(=O)NC(CS[S+]([O-])CC(NC(=O)CCC(N)C(=O)O)C(=O)NCC(=O)O)C(=O)NCC(=O)O)C(=O)O", "note": "(stereo not shown) [Example 1, glutathione disulfide S-oxide]", "values": [
      {"measurement": "potentiation of the antiviral effect of interferon α", "value": "9-10%"}
    ]}
  ]
}
